Here are results for 1 substance from PMC11192891.

Amino acid sequences for entries named in this document (tags omitted). Residues count along the entry.
HA-JAK1-JH2 (JAK1 JH2 pseudokinase domain) (P23458, residues 545-855): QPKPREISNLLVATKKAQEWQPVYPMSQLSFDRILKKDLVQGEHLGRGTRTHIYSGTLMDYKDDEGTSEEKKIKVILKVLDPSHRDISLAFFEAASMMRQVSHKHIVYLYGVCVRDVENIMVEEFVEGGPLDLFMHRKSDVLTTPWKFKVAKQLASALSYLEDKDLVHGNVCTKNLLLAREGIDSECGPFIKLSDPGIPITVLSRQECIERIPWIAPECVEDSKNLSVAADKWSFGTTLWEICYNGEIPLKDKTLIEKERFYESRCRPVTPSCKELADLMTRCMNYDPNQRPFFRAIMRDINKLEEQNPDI
Flag-JAK1-JH1 (JAK1 JH1 tyrosine kinase domain) (P23458, residues 856-1154): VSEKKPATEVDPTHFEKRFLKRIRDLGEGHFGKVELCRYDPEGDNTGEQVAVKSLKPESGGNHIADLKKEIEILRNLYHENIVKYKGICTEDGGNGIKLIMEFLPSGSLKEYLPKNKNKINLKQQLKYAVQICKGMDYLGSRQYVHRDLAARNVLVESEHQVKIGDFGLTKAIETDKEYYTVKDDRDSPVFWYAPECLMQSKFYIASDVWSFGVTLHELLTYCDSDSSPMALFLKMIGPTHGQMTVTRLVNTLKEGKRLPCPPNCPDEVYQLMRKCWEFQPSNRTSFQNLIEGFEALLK

No constants are given. Whether binding was seen depends on the method and setting. Binding seen in cells or lysates may run through a third protein. Some results given as binding are weak or reduced against the parent protein; the word gives no strength.

This assay concerns the target Flag-JAK1-JH1 (JAK1 JH1 tyrosine kinase domain) (human) (UniProt P23458). Nature of the assay: co-IP; Flag-IP (anti-Flag agarose beads) from 1 mg lysate of HEK293T cells transfected with the indicated constructs, 3-4 h at 4 °C, washed three times with NETN buffer (20 mM Tris pH 8.0, 100 mM NaCl, 1 mM EDTA, 0.5% NP-40), immunoblot; cells with or without SN-38 (1 μM, 24 h).

On to “HA-JAK1-JH2 (JAK1 JH2 pseudokinase domain) (from UniProt P23458 545-855) (domain or fragment)”, for which the binding result is “binds”.
